Assay results reported in PMC7648380.
No constants are given. Whether binding was seen depends on the method and setting. In cells and extracts the contact can be indirect. Some results given as binding are weak or reduced against the parent protein; the word gives no strength.

The chains behind the UniProt entries cited, without tags or fusion partners. Residues count along the entry.
UniProt Q01097, residues 27-1482: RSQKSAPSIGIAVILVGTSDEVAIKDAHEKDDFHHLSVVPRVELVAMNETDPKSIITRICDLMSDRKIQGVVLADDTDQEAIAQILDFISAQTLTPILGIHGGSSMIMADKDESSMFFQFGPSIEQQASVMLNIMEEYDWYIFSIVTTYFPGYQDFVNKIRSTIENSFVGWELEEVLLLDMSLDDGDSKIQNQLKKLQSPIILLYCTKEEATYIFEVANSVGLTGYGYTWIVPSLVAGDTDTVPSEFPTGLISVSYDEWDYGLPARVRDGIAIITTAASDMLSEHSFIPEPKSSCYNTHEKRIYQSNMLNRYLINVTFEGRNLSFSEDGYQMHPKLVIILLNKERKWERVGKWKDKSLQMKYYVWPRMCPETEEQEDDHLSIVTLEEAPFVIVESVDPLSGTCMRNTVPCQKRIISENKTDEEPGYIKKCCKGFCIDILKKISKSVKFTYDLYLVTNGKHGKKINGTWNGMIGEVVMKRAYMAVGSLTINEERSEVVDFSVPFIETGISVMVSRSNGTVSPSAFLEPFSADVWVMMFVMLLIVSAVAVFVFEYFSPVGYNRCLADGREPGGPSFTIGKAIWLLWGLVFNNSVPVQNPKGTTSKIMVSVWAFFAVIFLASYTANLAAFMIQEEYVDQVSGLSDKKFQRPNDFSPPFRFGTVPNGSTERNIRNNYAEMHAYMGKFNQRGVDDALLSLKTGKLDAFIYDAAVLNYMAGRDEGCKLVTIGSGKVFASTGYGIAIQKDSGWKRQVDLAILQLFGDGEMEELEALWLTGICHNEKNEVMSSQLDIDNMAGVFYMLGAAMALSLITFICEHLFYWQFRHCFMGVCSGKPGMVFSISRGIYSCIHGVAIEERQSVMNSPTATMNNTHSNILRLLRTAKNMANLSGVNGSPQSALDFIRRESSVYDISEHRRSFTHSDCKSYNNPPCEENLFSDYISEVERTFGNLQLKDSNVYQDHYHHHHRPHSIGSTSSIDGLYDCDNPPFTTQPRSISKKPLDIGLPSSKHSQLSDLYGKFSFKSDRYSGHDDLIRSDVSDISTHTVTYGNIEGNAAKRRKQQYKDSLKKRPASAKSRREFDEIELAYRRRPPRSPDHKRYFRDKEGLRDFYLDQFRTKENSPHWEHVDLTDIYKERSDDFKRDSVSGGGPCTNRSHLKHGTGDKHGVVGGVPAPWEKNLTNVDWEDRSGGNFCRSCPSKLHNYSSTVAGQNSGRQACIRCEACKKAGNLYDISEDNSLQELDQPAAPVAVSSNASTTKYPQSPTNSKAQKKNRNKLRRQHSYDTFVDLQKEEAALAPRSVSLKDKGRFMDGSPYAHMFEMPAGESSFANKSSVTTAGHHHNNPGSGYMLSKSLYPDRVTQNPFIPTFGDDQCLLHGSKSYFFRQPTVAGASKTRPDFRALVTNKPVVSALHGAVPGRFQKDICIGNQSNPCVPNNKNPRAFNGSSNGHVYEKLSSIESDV

Target: T1, megakaryocyte protein tyrosine phosphatase (PTPMEG) (mouse (endogenous in hippocampus)) (UniProt Q9WU22)
T1 sequence: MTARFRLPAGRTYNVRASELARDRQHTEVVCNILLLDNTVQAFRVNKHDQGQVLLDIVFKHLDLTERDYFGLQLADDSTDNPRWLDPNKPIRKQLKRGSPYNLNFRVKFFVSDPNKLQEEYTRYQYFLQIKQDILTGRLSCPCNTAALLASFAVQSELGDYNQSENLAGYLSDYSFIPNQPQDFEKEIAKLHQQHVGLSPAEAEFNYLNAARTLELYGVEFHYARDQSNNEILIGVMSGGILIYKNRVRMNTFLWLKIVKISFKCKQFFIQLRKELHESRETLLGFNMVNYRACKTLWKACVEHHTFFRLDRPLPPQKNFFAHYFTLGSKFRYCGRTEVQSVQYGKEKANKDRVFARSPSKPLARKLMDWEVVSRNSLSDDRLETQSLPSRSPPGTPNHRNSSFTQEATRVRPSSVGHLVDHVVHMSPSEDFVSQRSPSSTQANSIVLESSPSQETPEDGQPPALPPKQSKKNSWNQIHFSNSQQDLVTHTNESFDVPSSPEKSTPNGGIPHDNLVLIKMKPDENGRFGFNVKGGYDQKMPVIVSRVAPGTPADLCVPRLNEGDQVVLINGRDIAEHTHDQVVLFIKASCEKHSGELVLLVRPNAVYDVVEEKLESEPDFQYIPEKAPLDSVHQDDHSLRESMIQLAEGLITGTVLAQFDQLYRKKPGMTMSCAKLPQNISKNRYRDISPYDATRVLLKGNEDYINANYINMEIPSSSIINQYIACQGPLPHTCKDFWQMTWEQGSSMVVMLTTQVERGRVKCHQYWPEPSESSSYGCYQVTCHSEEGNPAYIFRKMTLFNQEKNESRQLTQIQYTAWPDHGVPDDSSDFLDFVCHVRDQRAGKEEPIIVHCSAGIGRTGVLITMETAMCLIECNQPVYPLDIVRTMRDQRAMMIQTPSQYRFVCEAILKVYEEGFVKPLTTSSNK
Assay: co-IP; P2 fractions from wild type mouse hippocampi solubilized in 50 mM Tris-HCl pH 8.0, 150 mM NaCl, 2 mM EDTA, 1% Triton X-100; immunoprecipitation with anti-PTPMEG antibody (or control IgG) pre-bound to protein G-agarose; immunoblot with anti-GluN2A and anti-GluN2B

Row | Substance | binding
1 | GluN2A NMDAR subunit (from UniProt P35436 23-1464) (receptor) | binds
2 | GluN2B NMDAR subunit (from UniProt Q01097 27-1482) (receptor) | binds
